In patent publication US20100111970A1 (published 2010):
Results are given in words; binding and its absence hold for the method and conditions named. Some results given as binding are weak or reduced against the parent protein; the word gives no strength.

By UniProt entry, the sequences of proteins in these tests, tags left out. Residues count along the entry.
UniProt P01138, residues 122-241: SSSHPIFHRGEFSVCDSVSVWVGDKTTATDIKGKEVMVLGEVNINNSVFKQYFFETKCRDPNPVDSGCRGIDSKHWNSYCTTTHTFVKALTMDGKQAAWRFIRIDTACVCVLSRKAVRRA

B1: light chain library clone L129 (Fab, V domains shown)
VH: QVQLQESGPGLVKPSETLSLTCTVSGFSLIGYDINWIRQPPGKGLEWIGMIWGDGTTDYNSALKSRVTISKDTSKNQFSLKLSSVTAADTAVYYCARGGYYYGTSYYFDYWGQGTLVTVS
VL: DIQMTQSPSSLSASVGDRVTITCRASQSISNNLNWYQQKPGKAPKLLIYYTSRFHSGVPSRFSGSGSGTDFTFTISSLQPEDIATYYCQQSKTLPYTFGQGTKLEIKR
B2: light chain library clone L208 (Fab, V domains shown)
VH: QVQLQESGPGLVKPSETLSLTCTVSGFSLIGYDINWIRQPPGKGLEWIGMIWGDGTTDYNSALKSRVTISKDTSKNQFSLKLSSVTAADTAVYYCARGGYYYGTSYYFDYWGQGTLVTVS
VL: DIQMTQSPSSLSASVGDRVTITCRASQYISNHLNWYQQKPGKAPKLLIYYTSRFHSGVPSRFSGSGSGTDFTFTISSLQPEDIATYYCQQSKTLPYTFGQGTKLEIKR
B3: light chain library clone L97 (Fab, V domains shown)
VH: QVQLQESGPGLVKPSETLSLTCTVSGFSLIGYDINWIRQPPGKGLEWIGMIWGDGTTDYNSALKSRVTISKDTSKNQFSLKLSSVTAADTAVYYCARGGYYYGTSYYFDYWGQGTLVTVS
VL: DIQMTQSPSSLSASVGDRVTITCRASQSISNQLNWYQQKPGKAPKLLIYYVSRFHSGVPSRFSGSGSGTDFTFTISSLQPEDIATYYCQQSKTLPYTFGQGTKLEIKR
B4: light chain library clone L81 (Fab, V domains shown)
VH: QVQLQESGPGLVKPSETLSLTCTVSGFSLIGYDINWIRQPPGKGLEWIGMIWGDGTTDYNSALKSRVTISKDTSKNQFSLKLSSVTAADTAVYYCARGGYYYGTSYYFDYWGQGTLVTVS
VL: DIQMTQSPSSLSASVGDRVTITCRAFQAISNQLNWYQQKPGKAPKLLIYYTSRFHTGVPSRFSGSGSGTDFTFTISSLQPEDIATYYCQQSKTLPYTFGQGTKLEIKR
notes: Substitutions derived by comparing printed CDRs with the 8L2-6D5 control
B5: light chain library clone L6 (Fab, V domains shown)
VH: QVQLQESGPGLVKPSETLSLTCTVSGFSLIGYDINWIRQPPGKGLEWIGMIWGDGTTDYNSALKSRVTISKDTSKNQFSLKLSSVTAADTAVYYCARGGYYYGTSYYFDYWGQGTLVTVS
VL: DIQMTQSPSSLSASVGDRVTITCRAFQSISNQLNWYQQKPGKAPKLLIYYASRFHSGVPSRFSGSGSGTDFTFTISSLQPEDIATYYCQQSKTLPYTFGQGTKLEIKR

Molecular target: T1, human nerve growth factor (NGF) (human, UniProt P01138 122-241)
T1 construct: Immobilized on CM5 chip in BIAcore assays; also called human NGF; hNGF
Experiment: BIAcore SPR affinity screening of L1/L2 library on human NGF

binding, binds:
B1, B2, B3, B4, B5
